Some of the results follow.
Key:
Assay in all cases: log2 fold change, soluble protein after heating vs DMSO (PISA); higher = thermal stabilisation; K562 cells, 10 uM, 30 min; active = over 0.2 and 3.5 SD of the protein, either way, in both replicates (recomputed)
bafetinib = compound: Cc1ccc(NC(=O)c2ccc(CN3CC[C@H](N(C)C)C3)c(C(F)(F)F)c2)cc1Nc1nccc(-c2cncnc2)n1 [bafetinib]
Summary of the method: (§1)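 Soluble protein was quantified by TMTpro 16plex LC-MS/MS after channel sums were equalised. It was obtained as the supernatant after 21,000xg for 90 min from pooled aliquots of K562 cells (2×10^6 cells/mL, 10 μM compound, 30 min) heated for 3 min across 48°C-58°C and extracted in PBS with 0.5% NP-40 at 4°C. Thermal stability values are relative to control samples and come from duplicates. They are given as log2 fold changes.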

Amino acid sequences for entries named in this document (tags omitted). A change or cut given only in a name is not applied to a line headed by its entry.
UniProt Q99816: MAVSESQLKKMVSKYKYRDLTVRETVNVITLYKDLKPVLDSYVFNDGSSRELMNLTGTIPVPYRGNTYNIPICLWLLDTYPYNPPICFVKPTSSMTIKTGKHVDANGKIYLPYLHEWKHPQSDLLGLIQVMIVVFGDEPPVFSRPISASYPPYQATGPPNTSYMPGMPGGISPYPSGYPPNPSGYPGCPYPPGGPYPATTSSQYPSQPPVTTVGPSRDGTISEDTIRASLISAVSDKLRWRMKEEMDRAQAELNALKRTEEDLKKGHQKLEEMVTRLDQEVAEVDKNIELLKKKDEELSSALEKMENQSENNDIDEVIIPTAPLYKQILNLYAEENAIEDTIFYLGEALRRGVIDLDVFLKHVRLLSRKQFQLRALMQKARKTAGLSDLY
UniProt Q99598: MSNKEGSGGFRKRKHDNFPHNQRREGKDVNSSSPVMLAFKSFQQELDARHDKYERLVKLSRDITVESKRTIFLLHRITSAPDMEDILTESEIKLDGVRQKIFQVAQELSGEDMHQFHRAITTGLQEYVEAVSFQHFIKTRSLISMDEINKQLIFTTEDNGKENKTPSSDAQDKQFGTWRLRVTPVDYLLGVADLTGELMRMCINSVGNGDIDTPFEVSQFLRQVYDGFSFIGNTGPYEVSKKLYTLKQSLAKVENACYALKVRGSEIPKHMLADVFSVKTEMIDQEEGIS
UniProt Q9BUF5, whole entry, looked up: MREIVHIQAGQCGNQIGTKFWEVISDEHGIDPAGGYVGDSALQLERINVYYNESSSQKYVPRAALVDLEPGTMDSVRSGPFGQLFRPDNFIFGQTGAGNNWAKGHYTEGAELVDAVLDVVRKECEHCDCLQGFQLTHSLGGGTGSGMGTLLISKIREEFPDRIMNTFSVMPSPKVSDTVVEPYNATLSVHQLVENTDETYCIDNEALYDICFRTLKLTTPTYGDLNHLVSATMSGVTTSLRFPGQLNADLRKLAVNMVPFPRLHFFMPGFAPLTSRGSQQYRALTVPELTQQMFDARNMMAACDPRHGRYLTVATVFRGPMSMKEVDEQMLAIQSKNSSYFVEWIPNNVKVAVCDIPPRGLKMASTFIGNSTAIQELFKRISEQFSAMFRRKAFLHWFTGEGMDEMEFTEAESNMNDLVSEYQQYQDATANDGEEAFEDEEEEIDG
UniProt Q8TBC4: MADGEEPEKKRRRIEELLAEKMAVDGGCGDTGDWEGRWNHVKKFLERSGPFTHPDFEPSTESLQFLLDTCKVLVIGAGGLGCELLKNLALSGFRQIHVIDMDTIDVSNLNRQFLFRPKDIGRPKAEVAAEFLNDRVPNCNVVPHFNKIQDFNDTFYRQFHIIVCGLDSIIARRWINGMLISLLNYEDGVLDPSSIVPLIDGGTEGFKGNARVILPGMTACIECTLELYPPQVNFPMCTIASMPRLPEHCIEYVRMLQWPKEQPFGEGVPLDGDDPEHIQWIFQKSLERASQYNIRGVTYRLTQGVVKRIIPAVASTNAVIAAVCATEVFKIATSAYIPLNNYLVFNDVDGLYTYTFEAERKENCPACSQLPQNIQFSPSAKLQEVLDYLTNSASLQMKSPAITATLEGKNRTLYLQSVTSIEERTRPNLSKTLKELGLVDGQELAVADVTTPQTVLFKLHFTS
UniProt Q9NNW7, whole entry, looked up: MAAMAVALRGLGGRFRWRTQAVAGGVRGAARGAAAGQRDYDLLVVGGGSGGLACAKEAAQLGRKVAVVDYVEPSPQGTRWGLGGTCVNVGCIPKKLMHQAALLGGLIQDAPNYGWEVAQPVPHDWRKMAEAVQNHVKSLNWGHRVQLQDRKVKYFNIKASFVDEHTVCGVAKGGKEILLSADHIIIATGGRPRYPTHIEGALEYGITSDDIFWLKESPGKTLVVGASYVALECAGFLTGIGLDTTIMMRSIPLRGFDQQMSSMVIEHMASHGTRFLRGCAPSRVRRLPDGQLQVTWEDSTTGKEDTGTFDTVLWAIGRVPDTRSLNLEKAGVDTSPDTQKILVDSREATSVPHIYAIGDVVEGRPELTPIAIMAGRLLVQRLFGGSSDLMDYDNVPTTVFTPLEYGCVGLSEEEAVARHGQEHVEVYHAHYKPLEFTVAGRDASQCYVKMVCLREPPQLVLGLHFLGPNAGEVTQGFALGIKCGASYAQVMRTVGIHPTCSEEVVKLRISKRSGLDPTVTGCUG
UniProt Q9BVA1, whole entry, looked up: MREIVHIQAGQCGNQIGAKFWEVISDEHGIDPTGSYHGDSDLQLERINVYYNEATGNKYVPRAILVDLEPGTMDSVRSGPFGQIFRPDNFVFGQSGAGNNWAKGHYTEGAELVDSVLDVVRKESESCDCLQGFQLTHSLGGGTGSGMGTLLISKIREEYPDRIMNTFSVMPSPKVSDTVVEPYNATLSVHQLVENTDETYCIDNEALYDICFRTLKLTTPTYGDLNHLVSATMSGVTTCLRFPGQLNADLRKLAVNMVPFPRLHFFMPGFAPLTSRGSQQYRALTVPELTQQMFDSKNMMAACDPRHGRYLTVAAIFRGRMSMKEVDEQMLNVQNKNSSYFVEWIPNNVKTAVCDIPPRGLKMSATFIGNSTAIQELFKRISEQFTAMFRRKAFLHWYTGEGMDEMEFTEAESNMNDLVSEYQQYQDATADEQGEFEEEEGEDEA
UniProt P68036, whole entry, looked up: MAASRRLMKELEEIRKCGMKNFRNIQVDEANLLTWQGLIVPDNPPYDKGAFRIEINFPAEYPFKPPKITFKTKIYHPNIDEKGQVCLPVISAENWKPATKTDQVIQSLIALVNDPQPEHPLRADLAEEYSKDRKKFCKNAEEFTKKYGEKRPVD
UniProt O14530: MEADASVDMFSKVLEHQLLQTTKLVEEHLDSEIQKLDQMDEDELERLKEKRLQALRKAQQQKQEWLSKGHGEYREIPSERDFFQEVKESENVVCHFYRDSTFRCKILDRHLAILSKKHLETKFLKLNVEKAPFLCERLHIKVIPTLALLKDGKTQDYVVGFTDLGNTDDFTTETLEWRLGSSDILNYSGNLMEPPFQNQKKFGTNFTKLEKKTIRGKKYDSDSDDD
UniProt Q9UBT2: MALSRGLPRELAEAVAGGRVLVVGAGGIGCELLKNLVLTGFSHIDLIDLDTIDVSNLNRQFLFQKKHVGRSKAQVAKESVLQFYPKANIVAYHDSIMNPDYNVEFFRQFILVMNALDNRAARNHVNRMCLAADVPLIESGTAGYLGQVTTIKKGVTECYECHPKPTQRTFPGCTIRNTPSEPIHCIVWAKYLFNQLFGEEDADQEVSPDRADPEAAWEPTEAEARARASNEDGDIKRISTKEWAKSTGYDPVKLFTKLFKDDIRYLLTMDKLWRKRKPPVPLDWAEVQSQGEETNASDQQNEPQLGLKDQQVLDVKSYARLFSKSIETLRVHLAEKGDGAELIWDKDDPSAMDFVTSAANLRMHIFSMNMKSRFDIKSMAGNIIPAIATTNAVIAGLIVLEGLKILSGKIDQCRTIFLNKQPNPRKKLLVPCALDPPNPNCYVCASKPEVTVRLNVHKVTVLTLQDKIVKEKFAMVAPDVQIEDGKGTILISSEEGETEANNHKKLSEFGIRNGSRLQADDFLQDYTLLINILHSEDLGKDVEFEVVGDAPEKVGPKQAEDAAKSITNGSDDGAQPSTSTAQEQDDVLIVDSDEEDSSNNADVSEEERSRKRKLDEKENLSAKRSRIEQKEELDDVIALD
UniProt Q13509, whole entry, looked up: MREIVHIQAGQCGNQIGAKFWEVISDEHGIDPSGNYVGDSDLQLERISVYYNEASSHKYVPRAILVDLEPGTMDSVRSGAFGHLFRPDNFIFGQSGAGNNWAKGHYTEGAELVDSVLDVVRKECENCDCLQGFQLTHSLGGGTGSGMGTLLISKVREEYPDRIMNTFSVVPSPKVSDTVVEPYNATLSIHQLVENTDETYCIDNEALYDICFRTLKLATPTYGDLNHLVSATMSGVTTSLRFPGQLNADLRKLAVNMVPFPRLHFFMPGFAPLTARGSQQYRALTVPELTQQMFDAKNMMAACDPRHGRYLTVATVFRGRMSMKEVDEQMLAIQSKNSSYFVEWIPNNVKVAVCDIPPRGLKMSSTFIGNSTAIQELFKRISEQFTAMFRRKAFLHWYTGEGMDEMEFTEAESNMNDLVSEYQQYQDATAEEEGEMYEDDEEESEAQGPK
UniProt Q14157: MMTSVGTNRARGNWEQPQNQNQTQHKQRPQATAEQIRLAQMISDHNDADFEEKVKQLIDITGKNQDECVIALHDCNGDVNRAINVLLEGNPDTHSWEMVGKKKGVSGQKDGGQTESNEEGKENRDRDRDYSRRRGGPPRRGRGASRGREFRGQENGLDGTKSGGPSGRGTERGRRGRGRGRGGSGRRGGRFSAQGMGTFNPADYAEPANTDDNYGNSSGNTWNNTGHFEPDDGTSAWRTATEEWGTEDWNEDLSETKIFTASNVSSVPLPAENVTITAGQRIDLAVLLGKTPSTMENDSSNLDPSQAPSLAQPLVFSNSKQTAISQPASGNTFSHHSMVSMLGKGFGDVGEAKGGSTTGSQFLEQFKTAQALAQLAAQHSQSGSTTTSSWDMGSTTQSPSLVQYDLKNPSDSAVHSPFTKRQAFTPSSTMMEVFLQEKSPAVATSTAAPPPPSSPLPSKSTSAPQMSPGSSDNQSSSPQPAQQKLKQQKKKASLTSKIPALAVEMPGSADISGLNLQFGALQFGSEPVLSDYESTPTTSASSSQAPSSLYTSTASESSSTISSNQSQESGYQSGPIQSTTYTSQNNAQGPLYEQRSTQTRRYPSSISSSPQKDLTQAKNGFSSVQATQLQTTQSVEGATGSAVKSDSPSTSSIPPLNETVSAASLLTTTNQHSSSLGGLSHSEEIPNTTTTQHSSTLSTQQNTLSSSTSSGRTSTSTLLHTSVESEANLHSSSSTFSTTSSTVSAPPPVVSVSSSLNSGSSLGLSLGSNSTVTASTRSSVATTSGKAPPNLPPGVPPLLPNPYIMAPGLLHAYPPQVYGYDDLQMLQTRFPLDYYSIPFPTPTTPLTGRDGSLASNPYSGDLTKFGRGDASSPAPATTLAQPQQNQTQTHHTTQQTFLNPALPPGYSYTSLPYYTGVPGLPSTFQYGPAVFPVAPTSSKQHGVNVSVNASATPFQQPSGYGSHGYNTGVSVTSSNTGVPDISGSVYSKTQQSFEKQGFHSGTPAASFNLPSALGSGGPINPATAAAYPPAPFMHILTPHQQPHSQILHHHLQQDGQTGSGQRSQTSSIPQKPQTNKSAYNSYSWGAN
UniProt Q969E8: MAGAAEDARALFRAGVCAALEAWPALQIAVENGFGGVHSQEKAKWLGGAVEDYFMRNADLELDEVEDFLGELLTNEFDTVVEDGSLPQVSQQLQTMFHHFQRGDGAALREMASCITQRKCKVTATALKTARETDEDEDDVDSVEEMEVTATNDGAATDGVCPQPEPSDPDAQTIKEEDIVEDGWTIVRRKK
UniProt Q9H3M7: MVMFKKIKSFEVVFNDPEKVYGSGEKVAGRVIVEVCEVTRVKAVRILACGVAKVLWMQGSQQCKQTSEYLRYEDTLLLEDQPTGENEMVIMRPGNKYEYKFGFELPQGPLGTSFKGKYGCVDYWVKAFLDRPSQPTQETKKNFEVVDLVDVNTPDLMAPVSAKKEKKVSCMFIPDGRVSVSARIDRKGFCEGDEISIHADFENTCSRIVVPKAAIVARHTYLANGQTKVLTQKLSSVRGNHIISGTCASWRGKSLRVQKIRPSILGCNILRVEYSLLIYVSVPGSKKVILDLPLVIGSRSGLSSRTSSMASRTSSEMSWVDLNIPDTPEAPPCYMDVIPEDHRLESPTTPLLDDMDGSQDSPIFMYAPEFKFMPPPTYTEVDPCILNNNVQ
UniProt Q8N5M4: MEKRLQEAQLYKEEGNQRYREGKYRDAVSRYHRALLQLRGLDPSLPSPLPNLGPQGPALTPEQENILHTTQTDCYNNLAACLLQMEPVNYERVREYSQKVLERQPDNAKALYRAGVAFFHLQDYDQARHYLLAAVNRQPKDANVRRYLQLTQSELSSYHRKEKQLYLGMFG
UniProt Q9NX01: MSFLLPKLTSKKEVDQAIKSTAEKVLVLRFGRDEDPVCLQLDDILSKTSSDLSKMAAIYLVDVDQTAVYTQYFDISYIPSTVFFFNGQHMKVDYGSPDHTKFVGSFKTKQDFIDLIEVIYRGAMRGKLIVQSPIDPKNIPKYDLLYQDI
UniProt Q6DKK2: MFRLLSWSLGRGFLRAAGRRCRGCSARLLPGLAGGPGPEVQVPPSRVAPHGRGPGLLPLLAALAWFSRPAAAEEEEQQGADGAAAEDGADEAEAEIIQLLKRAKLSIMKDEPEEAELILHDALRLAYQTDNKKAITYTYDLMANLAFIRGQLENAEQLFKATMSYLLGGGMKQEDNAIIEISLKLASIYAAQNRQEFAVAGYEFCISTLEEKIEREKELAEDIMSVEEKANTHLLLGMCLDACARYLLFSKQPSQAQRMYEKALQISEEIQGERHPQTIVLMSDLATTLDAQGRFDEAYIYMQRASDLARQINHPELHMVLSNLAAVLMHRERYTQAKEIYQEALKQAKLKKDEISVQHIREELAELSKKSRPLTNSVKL
UniProt P61081: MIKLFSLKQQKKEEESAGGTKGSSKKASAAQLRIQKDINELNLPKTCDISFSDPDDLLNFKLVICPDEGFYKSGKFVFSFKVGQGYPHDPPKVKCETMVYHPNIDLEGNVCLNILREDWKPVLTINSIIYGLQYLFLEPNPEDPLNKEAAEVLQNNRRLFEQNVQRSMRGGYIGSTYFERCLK

[1] = compound: Cc1cccc(CC(=O)N2CCc3c2ccc(-c2cn(C)c4ncnc(N)c24)c3F)n1
Summary of the method: as §1

nilotinib = compound: Cc1cn(-c2cc(NC(=O)c3ccc(C)c(Nc4nccc(-c5cccnc5)n4)c3)cc(C(F)(F)F)c2)cn1 [nilotinib]
Summary of the method: as §1

[2] = compound: Cc1nc(Nc2n[nH]c3c2CN(C(=O)N[C@H](CN(C)C)c2ccccc2)C3(C)C)c2sccc2n1
Summary of the method: as §1

dasatinib = compound: Cc1nc(Nc2ncc(C(=O)Nc3c(C)cccc3Cl)s2)cc(N2CCN(CCO)CC2)n1 [dasatinib]
Summary of the method: as §1

[3] = compound: Cc1ncc(-c2ccnc(Nc3ccc(S(C)(=O)=O)cc3)n2)n1C(C)C
Summary of the method: as §1

[4] = compound: Cn1cc(-c2ccc3c(c2)CCN3C(=O)Cc2cccc(C(F)(F)F)c2)c2c(N)ncnc21
Summary of the method: as §1

[5] = compound: Cn1cc(-c2ccc3nnc(C(F)(F)c4ccc5ncccc5c4)n3n2)cn1
Summary of the method: as §1

tipifarnib = compound: Cn1cncc1[C@@](N)(c1ccc(Cl)cc1)c1ccc2c(c1)c(-c1cccc(Cl)c1)cc(=O)n2C [tipifarnib]
Summary of the method: as §1

mubritinib = compound: FC(F)(F)c1ccc(/C=C/c2nc(COc3ccc(CCCCn4ccnn4)cc3)co2)cc1 [mubritinib]
Summary of the method: as §1

Measured: log2 fold change

TSG101 (UniProt Q99816)
inactive: bafetinib -0.096 | [1] -0.034 | nilotinib -0.014 | [2] -0.081 | dasatinib -0.092 | [3] -0.007 | [4] 0.033 | [5] -0.024 | tipifarnib -0.033 | mubritinib 0.052

TSNAX (UniProt Q99598)
inactive: bafetinib -0.032 | [1] -0.025 | nilotinib 0.006 | [2] 0.021 | dasatinib 0.037 | [3] -0.008 | [4] 0 | [5] 0.027 | tipifarnib 0.016 | mubritinib -0.022

TSTA3 (UniProt Q13630)
inactive: bafetinib -0.041 | [1] -0.02 | nilotinib -0.011 | [2] 0.023 | dasatinib 0.044 | [3] -0.007 | [4] 0.036 | [5] 0.031 | tipifarnib 0.018 | mubritinib 0.014

TUBB6 (UniProt Q9BUF5)
inactive: bafetinib -0.039 | [1] 0 | nilotinib 0.016 | [2] 0.003 | dasatinib -0.027 | [3] -0.006 | [4] 0.061 | [5] 0.007 | tipifarnib -0.056 | mubritinib 0.036

UBA3 (UniProt Q8TBC4)
inactive: bafetinib 0.011 | [1] 0.046 | nilotinib -0.047 | [2] -0.024 | dasatinib -0.154 | [3] -0.021 | [4] 0.089 | [5] 0.041 | tipifarnib -0.122 | mubritinib 0.207

Fetched one by one from the list above, two records:
UBA3 (UniProt Q8TBC4)
inactive: bafetinib 0.011 | [1] 0.046 | nilotinib -0.047 | [2] -0.024 | dasatinib -0.154 | [3] -0.021 | [4] 0.089 | [5] 0.041 | tipifarnib -0.122 | mubritinib 0.207

TSNAX (UniProt Q99598)
inactive: bafetinib -0.032 | [1] -0.025 | nilotinib 0.006 | [2] 0.021 | dasatinib 0.037 | [3] -0.008 | [4] 0 | [5] 0.027 | tipifarnib 0.016 | mubritinib -0.022

(list continues)

TXNRD2 (UniProt Q9NNW7)
inactive: bafetinib -0.026 | [1] -0.013 | nilotinib 0.1 | [2] -0.039 | dasatinib 0.013 | [3] 0.015 | [4] -0.024 | [5] 0.014 | tipifarnib 0.015 | mubritinib -0.128

TUBB2B (UniProt Q9BVA1)
inactive: bafetinib -0.093 | [1] 0.014 | nilotinib 0.031 | [2] 0.002 | dasatinib 0.067 | [3] 0.019 | [4] -0.144 | [5] -0.031 | tipifarnib -0.008

UBE2V2 (UniProt Q15819)
inactive: bafetinib -0.055 | [1] 0.017 | nilotinib 0.068 | [2] -0.015 | dasatinib 0.002 | [3] -0.015 | [4] 0.053 | [5] 0.009 | tipifarnib -0.011 | mubritinib 0.036

UBE2L3 isoform 3 (UniProt P68036)
inactive: bafetinib -0.047 | [1] 0.011 | nilotinib 0.021 | [2] -0.037 | dasatinib 0.061 | [3] -0.005 | [4] 0.025 | [5] 0.033 | tipifarnib 0.028 | mubritinib 0.03

TTC4 (UniProt O95801)
inactive: bafetinib 0.036 | [1] 0.116 | nilotinib -0.034 | [2] -0.094 | dasatinib -0.137 | [3] 0.003 | [4] 0.019 | [5] 0 | tipifarnib -0.077 | mubritinib 0.061

TXNDC9 (UniProt O14530)
inactive: bafetinib 0.04 | [1] 0.042 | nilotinib 0.033 | [2] 0.007 | dasatinib 0.007 | [3] -0.051 | [4] 0.029 | [5] 0 | tipifarnib 0.035 | mubritinib 0.043

UBA2 (UniProt Q9UBT2)
inactive: bafetinib 0.007 | [1] -0.018 | nilotinib 0.037 | [2] 0.028 | dasatinib -0.013 | [3] 0.009 | [4] 0 | [5] 0.031 | tipifarnib -0.06 | mubritinib 0.163

TUBB3 (UniProt Q13509)
inactive: bafetinib 0.003 | [1] 0.02 | nilotinib 0.053 | [2] -0.008 | dasatinib -0.05 | [3] -0.026 | [4] 0.079 | [5] -0.007 | tipifarnib -0.017 | mubritinib 0.058

UBAP2L isoform 5 (UniProt Q14157)
inactive: bafetinib -0.044 | [1] -0.02 | nilotinib -0.003 | [2] -0.015 | dasatinib 0.005 | [3] 0.007 | [4] 0.011 | [5] -0.003 | tipifarnib -0.028 | mubritinib 0.024

TSR1 (UniProt Q2NL82)
inactive: bafetinib 0.201 | [1] -0.037 | nilotinib -0.048 | [2] 0.135 | dasatinib -0.017 | [3] 0.057 | [4] -0.09 | [5] -0.031 | tipifarnib 0.029 | mubritinib -0.009

TSR2 (UniProt Q969E8)
inactive: bafetinib 0.044 | [1] -0.064 | nilotinib 0.028 | [2] -0.038 | dasatinib -0.056 | [3] -0.045 | [4] 0.045 | [5] -0.078 | tipifarnib -0.022 | mubritinib 0.006

UBAC2 (UniProt Q8NBM4)
inactive: bafetinib 0.062 | [1] 0.088 | nilotinib 0.092 | [2] -0.207 | dasatinib 0.074 | [3] 0.065 | [4] 0.051 | [5] 0.055 | tipifarnib -0.001 | mubritinib -0.079

TXNIP (UniProt Q9H3M7)
inactive: bafetinib 0.03 | [1] -0.072 | nilotinib 0.018 | [2] 0.185 | dasatinib 0.005 | [3] -0.264 | [4] 0.105 | [5] -0.105 | tipifarnib 0.199 | mubritinib -0.264

TXLNA (UniProt P40222)
inactive: bafetinib -0.006 | [1] -0.015 | nilotinib 0.002 | [2] -0.023 | dasatinib -0.038 | [3] -0.009 | [4] 0.019 | [5] -0.02 | tipifarnib -0.016 | mubritinib 0.073

TTC9C (UniProt Q8N5M4)
inactive: bafetinib -0.079 | [1] -0.037 | nilotinib -0.044 | [2] 0.002 | dasatinib -0.178 | [3] 0.029 | [4] 0.162 | [5] -0.018 | tipifarnib -0.037 | mubritinib 0.046

UBA1 (UniProt P22314)
inactive: bafetinib 0.034 | [1] 0.187 | nilotinib -0.089 | [2] -0.062 | dasatinib -0.216 | [3] 0.062 | [4] 0.027 | [5] 0.121 | tipifarnib -0.235
active: mubritinib 0.395

TXNL4B (UniProt Q9NX01)
inactive: bafetinib -0.1 | [1] 0.005 | nilotinib 0.003 | [2] -0.041 | dasatinib -0.042 | [3] 0.01 | [4] 0.007 | [5] 0.028 | tipifarnib 0.008 | mubritinib 0.17

TTC17 (UniProt Q96AE7)
inactive: bafetinib -0.04 | [1] 0.039 | nilotinib 0.03 | [2] 0.134 | dasatinib 0.038 | [3] -0.028 | [4] -0.052 | [5] 0.015 | tipifarnib 0.155 | mubritinib 0.046

TTC7B isoform 2 (UniProt Q86TV6)
inactive: bafetinib -0.201 | [1] -0.021 | nilotinib 0.052 | [2] -0.118 | dasatinib -0.09 | [3] -0.023 | [4] -0.037 | [5] -0.07 | tipifarnib 0.126

TUSC3 isoform 2 (UniProt Q13454)
inactive: bafetinib 0.012 | [1] -0.073 | nilotinib -0.032 | [2] 0.037 | dasatinib 0.038 | [3] -0.016 | [4] -0.086 | [5] -0.011 | tipifarnib 0.048 | mubritinib -0.017

TUT1 (UniProt Q9H6E5)
inactive: bafetinib -0.055

TXNDC15 (UniProt Q96J42)
inactive: bafetinib -0.002 | [1] -0.063 | nilotinib 0.059 | [2] -0.032 | dasatinib -0.084 | [3] -0.028 | [4] 0.018 | [5] 0.035 | tipifarnib 0.003 | mubritinib -0.101

TTC19 (UniProt Q6DKK2)
inactive: bafetinib -0.043 | [1] 0.042 | nilotinib -0.045 | [2] -0.041 | dasatinib -0.023 | [3] 0.034 | [4] 0.023 | [5] 0.036 | tipifarnib -0.077 | mubritinib 0.181

TUBB4B (UniProt P68371)
inactive: bafetinib 0.002 | [1] -0.008 | nilotinib 0.028 | [2] 0.012 | dasatinib -0.05 | [3] -0.003 | [4] 0.07 | [5] 0.011 | tipifarnib -0.055 | mubritinib 0.009

U2SURP (UniProt O15042)
inactive: bafetinib 0.131 | [1] 0.033 | nilotinib -0.152 | [2] -0.339 | dasatinib -0.136 | [3] 0.014 | [4] -0.006 | [5] 0.031 | tipifarnib 0.037 | mubritinib -0.037

UBE2M (UniProt P61081)
inactive: bafetinib -0.05 | [1] -0.003 | nilotinib -0.048 | [2] -0.007 | dasatinib -0.092 | [3] -0.011 | [4] 0.101 | [5] 0.003 | tipifarnib -0.049 | mubritinib 0.052

Reference: the supplement of paper PMC10849652
